# Results taken from PMC11555385.
# The chains behind the UniProt entries cited, without tags or fusion partners.
# UniProt P07355: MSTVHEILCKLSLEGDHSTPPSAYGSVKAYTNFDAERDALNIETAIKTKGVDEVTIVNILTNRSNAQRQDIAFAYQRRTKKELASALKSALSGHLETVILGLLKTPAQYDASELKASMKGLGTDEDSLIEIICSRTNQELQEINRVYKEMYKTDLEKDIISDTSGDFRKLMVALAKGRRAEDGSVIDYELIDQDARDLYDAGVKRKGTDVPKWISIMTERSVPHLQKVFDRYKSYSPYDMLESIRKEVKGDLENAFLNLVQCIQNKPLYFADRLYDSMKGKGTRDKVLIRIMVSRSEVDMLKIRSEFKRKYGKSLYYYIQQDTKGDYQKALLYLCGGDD
# T1: CDC25A (human (endogenous in HeLa)) (UniProt P30304)
# T1 sequence: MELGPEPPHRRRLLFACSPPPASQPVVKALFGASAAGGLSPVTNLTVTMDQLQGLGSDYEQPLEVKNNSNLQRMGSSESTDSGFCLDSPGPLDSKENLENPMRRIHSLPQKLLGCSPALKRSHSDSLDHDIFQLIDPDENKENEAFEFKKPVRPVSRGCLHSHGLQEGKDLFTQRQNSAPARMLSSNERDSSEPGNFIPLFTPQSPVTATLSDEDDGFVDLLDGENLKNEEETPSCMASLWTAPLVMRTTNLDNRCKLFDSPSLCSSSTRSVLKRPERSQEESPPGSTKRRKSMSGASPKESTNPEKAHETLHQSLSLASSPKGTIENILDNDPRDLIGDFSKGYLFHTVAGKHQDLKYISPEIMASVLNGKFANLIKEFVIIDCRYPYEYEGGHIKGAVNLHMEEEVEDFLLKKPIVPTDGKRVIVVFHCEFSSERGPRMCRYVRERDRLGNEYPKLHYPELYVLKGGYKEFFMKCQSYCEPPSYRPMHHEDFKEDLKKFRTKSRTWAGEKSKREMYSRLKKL
# Tests used:
# [1] = molecular target: T1, CDC25A (human (endogenous in HeLa)); assay: affinity purification with mass spectrometry; immunoprecipitation of CDC25A from HeLa cells (50% density and 100%+2Days groups compared), mass spectrometry of the co-precipitated proteins
# [2] = molecular target: T1, CDC25A (human (endogenous in HeLa)); assay: as above; remark: listed apart in the source
binding [1],binding [2],Molecule
binds,,Annexin A2 (from UniProt P07355 1-339)
,binds,"Annexin A1 (protein, UniProt P04083 1-346) MAMVSEFLKQAWFIENEEQEYVQTVKSSKGGPGSAVSPYPTFNPSSDVAALHKAIMVKGVDEATIIDILTKRNNAQRQQIKAAYLQETGKPLDETLKKALTGHLEEVVLALLKTPAQFDADELRAAMKGLGTDEDTLIEILASRTNKEIRDINRVYREELKRDLAKDITSDTSGDFRNALLSLAKGDRSEDFGVNEDLADSDARALYEAGERRKGTDVNVFNTILTTRSYPQLRRVFQKYTKYSKHDMNKVLDLELKGDIEKCLTAIVKCATSKPAFFAEKLHQAMKGVGTRHKALIRIMVSRSEIDMNDIKAFYQKMYGISLCQAILDETKGDYEKILVALCGGN"

# Read-outs that look alike come from different tables or passages of the source. No constants are given. Whether binding was seen depends on the method and setting. Binding seen in cells or lysates may run through a third protein. A yes stands for co-enrichment or nearness to the bait. Other partners may have been found.
